System: THLE-2 cells
Assay: cells
Type: cell-based
Conditions: Homo sapiens, THLE-2, 72 h, read-out: IC50 value (THLE-2 viability)
Protocol: The effects of ANF and RZF and their dehydroxylated derivatives 1 and 2 on the viability of human cells were further evaluated in an assay with THLE-2 cells, which are a transformed human liver epithelial cell line. These cells express phenotypic characteristics of normal adult liver epithelial cells.
THLE-2 cells (ATCC, cat. no. CRL2706) were cultured in 384-well plates coated with BEBM (Lonza, cat. no CC3170) containing 100 μg/mL BSA, 1:100 fibronectin (Sigma, cat. no. F0895), and a 1:100 PureCol EZ Gel Solution (Sigma, cat. no. 5074) for 50–60 min at 37 °C. THLE-2 cells were plated at a density of 2.5 × 10^3 cells/well in the coated plates in a total volume of 20 μL. Culture media were BEGM supplemented with 5 ng/mL hEGF (Sigma, cat. no. E5036), 70 ng/mL phosphoethanolamine (Sigma, cat. no. P0503), and 10% fetal bovine serum. Plates were incubated overnight at 37 °C, 95% humidity, and 5% CO2. The culture medium was replaced with 50 μL of a fresh medium, and compounds were applied to the cells in triplicate. Plates were cultured for another 72 h, and ATP was quantified using a CellTiter-Glo kit (Promega #G7573) according to the manufacturer’s protocol. The luminescence signal was detected using a PHERAstar FS (BMG Labtech).

CC/C(=C(\c1ccccc1)c1ccc(OCCN(C)C)cc1)c1ccccc1 [Tamoxifen]
IC50: ~20 µM

From paper PMC8991007, “Benzylic Dehydroxylation of Echinocandin Antifungal Drugs Restores Efficacy against Resistance Conferred by Mutated Glucan Synthase” (Journal of the American Chemical Society, 2022)
